Experimental data: patent EP2163246A1, “Taurine or taurine-like substances for the prevention of the irreversible visual effects of vigabatrin” (INSERM (Institut National de la Santé et de la Recherche …, priority 2008, dated 2010)
Several values for one entry are separate records, joined by “and”; a condition that tells them apart may be missing. Identical values can stand only once. Like-named read-outs stand apart in the source and are kept apart here.

Settings: albino rats, VGB 40 mg daily i.p. 65 days, n=5, s.e.m.; for Blood concentrations for amino acids: Taurine: control 373,4 ± 46,7

C=CC(N)CCC(=O)O (centres unmarked) [VGB, 4-amino-5-hexenoic acid]
Blood concentrations for amino acids: Phenylalanine (control 54,2 ± 6, 9): 42,8 ± 1,0 µM
Blood concentrations for amino acids: Citrulline (control 54 ± 9,7): 45,6 ± 4,2 µM
Blood concentrations for amino acids: Methionine (control 58 ± 4,7, * significant): 45 ± 1,4 * µM
Blood concentrations for amino acids: Tyrosine (control 63,2 ± 6,8): 51,6 ± 4,5 µM
Blood concentrations for amino acids: Histidine (control 75,8 ± 5,4): 63,2 ± 2,9 µM
Blood concentrations for amino acids: Ornithine (control 78.6 ± 33.0): 57.6 ± 10.6 µM
Blood concentrations for amino acids: Isoleucine (control 79,8 ± 8,0): 68,2 ± 4,5 µM
Blood concentrations for amino acids: Arginine (control 130 ± 39,0): 111,8 ± 15,1 µM
Blood concentrations for amino acids: Leucine (control 152,6 ± 17,6): 123,2 ± 11,5 µM
Blood concentrations for amino acids: Proline (control 155 ± 21,0): 110,6 ± 20,1 µM
Blood concentrations for amino acids: Valine (control 167, 4 ± 14,8): 146 ±8,9 µM
Blood concentrations for amino acids: Glycine (control 190,6 ± 30,1): 142,8 ± 17,6 µM
Blood concentrations for amino acids: Thréonine (control 194,2 ± 30,8): 130,6 ± 7,0 µM
Blood concentrations for amino acids: Sérine (control 203,8 ± 28,7): 169,4 ± 16,1 µM
Blood concentrations for amino acids: Acide glutamique (control 217,4 ± 56,6, * significant): 94.8±15.6 µM and 94,8 ± 15,6 * µM
Blood concentrations for amino acids: Alanine (control 303,8 ± 32,3): 270,4 ± 29,5 µM
Blood concentrations for amino acids: Lysine (control 307,2 ± 23,8): 260,4 ± 32,3 µM
Blood concentrations for amino acids: Taurine (* significant): 122.2±26.6 µM and 122,2 ± 26,6 * µM
Blood concentrations for amino acids: Taurine (* significant, listed as vigabatrin): 122.2 µM
Blood concentrations for amino acids: Glutamine (control 375,6 ± 40,7): 349 ± 13,4 µM
